In US20030073656A1:
No constants are given. Whether binding was seen depends on the method and setting. Some entries that bind do so weakly or less than the wild type.

Amino acid sequences for entries named in this document (tags omitted). A change or cut given only in a name is not applied to a line headed by its entry.
UniProt Q04912: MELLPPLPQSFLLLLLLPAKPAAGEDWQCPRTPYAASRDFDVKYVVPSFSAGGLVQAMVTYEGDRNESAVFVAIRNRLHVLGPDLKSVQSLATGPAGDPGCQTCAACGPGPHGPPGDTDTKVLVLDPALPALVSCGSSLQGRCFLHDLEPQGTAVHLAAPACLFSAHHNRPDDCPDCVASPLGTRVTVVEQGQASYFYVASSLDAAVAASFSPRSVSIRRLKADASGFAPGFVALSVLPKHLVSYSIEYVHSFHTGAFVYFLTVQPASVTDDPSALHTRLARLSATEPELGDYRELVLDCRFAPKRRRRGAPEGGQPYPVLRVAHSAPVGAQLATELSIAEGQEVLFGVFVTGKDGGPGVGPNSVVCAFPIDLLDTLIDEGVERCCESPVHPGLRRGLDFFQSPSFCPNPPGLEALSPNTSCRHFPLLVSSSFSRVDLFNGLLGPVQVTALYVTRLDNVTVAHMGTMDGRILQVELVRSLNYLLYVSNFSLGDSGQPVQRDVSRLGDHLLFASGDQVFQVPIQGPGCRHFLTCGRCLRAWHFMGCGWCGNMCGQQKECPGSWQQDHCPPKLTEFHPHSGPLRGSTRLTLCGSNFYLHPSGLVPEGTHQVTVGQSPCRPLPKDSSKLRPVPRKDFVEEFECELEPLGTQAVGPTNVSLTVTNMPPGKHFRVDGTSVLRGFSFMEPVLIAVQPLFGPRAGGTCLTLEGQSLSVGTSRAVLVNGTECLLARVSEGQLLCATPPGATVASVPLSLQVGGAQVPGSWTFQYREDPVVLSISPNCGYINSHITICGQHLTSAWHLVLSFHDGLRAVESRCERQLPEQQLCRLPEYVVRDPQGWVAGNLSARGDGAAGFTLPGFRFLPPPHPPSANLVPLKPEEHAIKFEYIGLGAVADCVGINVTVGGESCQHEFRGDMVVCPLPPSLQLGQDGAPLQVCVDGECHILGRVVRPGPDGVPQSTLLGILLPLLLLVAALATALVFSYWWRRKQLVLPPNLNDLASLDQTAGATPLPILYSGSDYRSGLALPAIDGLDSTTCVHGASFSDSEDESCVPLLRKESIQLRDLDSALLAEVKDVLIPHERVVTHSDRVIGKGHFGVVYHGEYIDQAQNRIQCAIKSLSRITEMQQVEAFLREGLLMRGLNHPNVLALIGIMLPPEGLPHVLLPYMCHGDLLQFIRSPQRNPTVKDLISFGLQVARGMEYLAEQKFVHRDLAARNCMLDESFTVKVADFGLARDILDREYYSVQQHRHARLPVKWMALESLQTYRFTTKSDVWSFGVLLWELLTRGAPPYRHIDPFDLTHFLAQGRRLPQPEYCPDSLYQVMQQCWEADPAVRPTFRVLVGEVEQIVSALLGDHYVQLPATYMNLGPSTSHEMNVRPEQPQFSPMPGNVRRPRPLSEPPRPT

B1: truncated HGFL lacking the 4th kringle domain (ΔK4) (ligand)
chain: QRSPLNDFQVLRGTELQHLLHAVVPGPWQEDVADAEECAGRCGPLMDCRAFHYNVSSHGCQLLPWTQHSPHTRLRRSGRCDLFQKKDYVRTCIMNNGVGYRGTMATTVGGLPCQAWSHKFPNDHKYTPTLRNGLEENFCRNPDGDPGGPWCYTTDPAVRFQSCGIKSCREAACVWCNGEEYRGAVDRTESGRECQRWDLQHPHQHPFEPGKFLDQGLDDNYCRNPDGSERPWCYTTDPQIEREFCDLPRCGSEAQPRQEATTVSCFRGKGEGYRGTANTTTAGVPCQRWDAQIPHQHRFTPEKYACKDLRENFCRNPDGSEAPWCFTLRPGMRAAFCYQIRRCTDDVRPQDADDQPPSILDPPDQVQFEKCGKRVDRLDQRRSKLRVVGGHPGNSPWTVSLRNRQGQHFCGGSLVKEQWILTARQCFSSCHMPLTGYEVWLGTLFQNPQHGEPSLQRVPVAKMVCGPSGSQLVLLKLERSVTLNQRVALICLPPEWYVVPPGTKCEIAGWGETKGTGNDTVLNVALLNVISNQECNIKHRGRVRESEMCTEGLLAPVGACEGDYGGPLACFTHNCWVLEGIIIPNRVCARSRWPAVFTRVSVFVDWIHKVMRLG
B2: truncated HGFL lacking the 3rd kringle domain (ΔK3) (ligand)
chain: QRSPLNDFQVLRGTELQHLLHAVVPGPWQEDVADAEECAGRCGPLMDCRAFHYNVSSHGCQLLPWTQHSPHTRLRRSGRCDLFQKKDYVRTCIMNNGVGYRGTMATTVGGLPCQAWSHKFPNDHKYTPTLRNGLEENFCRNPDGDPGGPWCYTTDPAVRFQSCGIKSCREAACVWCNGEEYRGAVDRTESGRECQRWDLQHPHQHPFEPGKFLDQGLDDNYCRNPDGSERPWCYTTDPQIEREFCDLPRCGSEAQPRQEATTVSTDDVRPQDCYHGAGEQYRGTVSKTRKGVQCQRWSAETPHKPQFTFTSEPHAQLEENFCRNPDGDSHGPWCYTMDPRTPFDYCALRRCADDQPPSILDPPDQVQFEKCGKRVDRLDQRRSKLRVVGGHPGNSPWTVSLRNRQGQHFCGGSLVKEQWILTARQCFSSCHMPLTGYEVWLGTLFQNPQHGEPSLQRVPVAKMVCGPSGSQLVLLKLERSVTLNQRVALICLPPEWYVVPPGTKCEIAGWGETKGTGNDTVLNVALLNVISNQECNIKHRGRVRESEMCTEGLLAPVGACEGDYGGPLACFTHNCWVLEGIIIPNRVCARSRWPAVFTRVSVFVDWIHKVMRLG
B3: truncated HGFL lacking the 2nd kringle domain (ΔK2) (ligand)
chain: QRSPLNDFQVLRGTELQHLLHAVVPGPWQEDVADAEECAGRCGPLMDCRAFHYNVSSHGCQLLPWTQHSPHTRLRRSGRCDLFQKKDYVRTCIMNNGVGYRGTMATTVGGLPCQAWSHKFPNDHKYTPTLRNGLEENFCRNPDGDPGGPWCYTTDPAVRFQSCGIKSCGSEAQPRQEATTVSCFRGKGEGYRGTANTTTAGVPCQRWDAQIPHQHRFTPEKYACKDLRENFCRNPDGSEAPWCFTLRPGMRAAFCYQIRRCTDDVRPQDCYHGAGEQYRGTVSKTRKGVQCQRWSAETPHKPQFTFTSEPHAQLEENFCRNPDGDSHGPWCYTMDPRTPFDYCALRRCADDQPPSILDPPDQVQFEKCGKRVDRLDQRRSKLRVVGGHPGNSPWTVSLRNRQGQHFCGGSLVKEQWILTARQCFSSCHMPLTGYEVWLGTLFQNPQHGEPSLQRVPVAKMVCGPSGSQLVLLKLERSVTLNQRVALICLPPEWYVVPPGTKCEIAGWGETKGTGNDTVLNVALLNVISNQECNIKHRGRVRESEMCTEGLLAPVGACEGDYGGPLACFTHNCWVLEGIIIPNRVCARSRWPAVFTRVSVFVDWIHKVMRLG

target: RON receptor tyrosine kinase (Homo sapiens (Human)) (UniProt Q04912); assay: RON receptor binding; assay not given

| binding | Binder |
| --- | --- |
| binds | B1 |
| binds | B2 |
| binds | B3 |
